Source: the supplement of paper PMC8975748
Counter-ions that a name gives are not always drawn. ± gives the standard deviation of the averaged measurements. The list shows a part of the results. These are raw signals, not scaled to a control.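 One yeast strain harboring four plasmids, each bearing a fluorescent protein plus an amino-acid or uracil synthesis gene, founds the community. Random loss of plasmids produces mixed prototroph and auxotroph subpopulations. Cells were fixed, then counted with automated confocal fluorescence imaging, with DMSO-treated wells as vehicle reference.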

Test system: Saccharomyces cerevisiae BY4741 SeMeCo community
Test: imaged cell count per well (cells); higher = more cells
Settings: 10 µM; 24 h; SM minimal medium
Description: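 Same SeMeCo high-content imaging drug screen: Selleck FDA-approved drugs at 10 µM, 24 h in SM medium, 384-well plates, 3 replicates.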

SMILES | imaged cell count per well
CN[C@@H]1[C@H](O[C@H]2[C@H](O[C@H]3[C@H](O)[C@@H](O)[C@H](N=C(N)N)[C@@H](O)[C@@H]3N=C(N)N)O[C@@H](C)[C@]2(O)C=O)O[C@@H](CO)[C@H](O)[C@H]1O [Streptomycin sulfate] | 26600 ± 2800
COCCCC/C(=N\OCCN)c1ccc(C(F)(F)F)cc1 [Fluvoxamine maleate] | 26700 ± 2700
Cc1c(Cl)cccc1Nc1ccccc1C(=O)O [Tolfenamic Acid] | 22600 ± 4500
Fc1ccc([C@@H]2CCNC[C@H]2COc2ccc3c(c2)OCO3)cc1 [Paroxetine HCl] | 20600 ± 6600
CCOC(=O)c1ccc(N)cc1 [Benzocaine hydrochloride] | 24600 ± 2500
C[C@](N)(Cc1ccc(O)c(O)c1)C(=O)O [Methyldopa] | 26600 ± 6700
COc1cccc2c1C(=O)c1c(O)c3c(c(O)c1C2=O)C[C@@](O)(C(C)=O)C[C@@H]3O[C@H]1C[C@H](N)[C@H](O)[C@H](C)O1 [Daunorubicin HCl] | 19100 ± 4000
CNCCC(Oc1ccc(C(F)(F)F)cc1)c1ccccc1 (stereo not drawn) [Fluoxetine HCl] | 19300 ± 3000
O=C1[C@@H]2[C@H]3CC[C@H](C3)[C@@H]2C(=O)N1C[C@@H]1CCCC[C@H]1CN1CCN(c2nsc3ccccc23)CC1 [lurasidone] | 30100 ± 4200
NC(=O)C(c1ccccc1)(c1ccccc1)[C@@H]1CCN(CCc2ccc3c(c2)CCO3)C1 [Darifenacin HBr] | 26300 ± 10000
CCCCCCCCN=c1ccn(CCCCCCCCCCn2ccc(=NCCCCCCCC)cc2)cc1 [Octenidine Dihydrochloride] | 1600 ± 620
Cc1cc(/C=C/c2ccc3cc(N(C)C)ccc3[n+]2C)c(C)n1-c1ccccc1 [pyrvinium] | 25400 ± 5600
COc1cc(NC(C)CCCN)c2ncccc2c1 (stereo not drawn) [Primaquine Diphosphate] | 22200 ± 10000
Cc1c(C)c2c(c(C)c1O)CC[C@@](C)(CCC[C@H](C)CCC[C@H](C)CCCC(C)C)O2 [Vitamin E] | 31300 ± 3000
CCC(=O)O[C@@H]1CC(=O)O[C@H](C)C/C=C/C=C/[C@H](O)[C@H](C)C[C@H](CC=O)[C@H](O[C@@H]2O[C@H](C)[C@@H](O[C@H]3C[C@@](C)(O)[C@@H](OC(=O)CC)[C@H](C)O3)[C@H](N(C)C)[C@H]2O)[C@H]1OC [Midecamycin] | 27200 ± 2500
CC(C)[C@H](N)C(=O)OCCOCn1cnc2c(=O)nc(N)[nH]c21 [Valaciclovir HCl] | 29000 ± 3100
CNCc1cc(-c2ccccc2F)n(S(=O)(=O)c2cccnc2)c1 [Vonoprazan Fumarate (TAK-438)] | 21300 ± 6900
CN(C)CCC[C@@]1(c2ccc(F)cc2)OCc2cc(C#N)ccc21 [Escitalopram Oxalate] | 26100 ± 6400
C#C[C@]1(O)CC[C@H]2[C@@H]3CCc4cc(OC)ccc4[C@H]3CC[C@@]21C [Mestranol] | 26600 ± 3700

A second format for part of the listing above.
SMILES	imaged cell count per well
C[C@](N)(Cc1ccc(O)c(O)c1)C(=O)O [Methyldopa]	26600 ± 6700
COc1cccc2c1C(=O)c1c(O)c3c(c(O)c1C2=O)C[C@@](O)(C(C)=O)C[C@@H]3O[C@H]1C[C@H](N)[C@H](O)[C@H](C)O1 [Daunorubicin HCl]	19100 ± 4000

The list goes on:

SMILES | imaged cell count per well
C#C[C@]1(O)CC[C@H]2[C@@H]3CCC4=CCCC[C@@H]4[C@H]3C(=C)C[C@@]21CC [Desogestrel] | 25000 ± 8200
CCC[C@@H]1C[C@@H](C(=O)N[C@@H]([C@H]2O[C@H](SC)[C@H](OP(=O)(O)O)[C@@H](O)[C@H]2O)[C@H](C)Cl)N(C)C1 [Clindamycin Phosphate] | 27600 ± 4600
CN1C2CCC1CC(OC(=O)C(O)c1ccccc1)C2 (stereo not drawn) [Homatropine Bromide] | 26200 ± 2200
COc1cc2c(cc1OC)C(=O)C(CC1CCN(Cc3ccccc3)CC1)C2 (stereo not drawn) [Donepezil HCl] | 26900 ± 8600
CS(=O)(=O)Nc1ccc([N+](=O)[O-])cc1Oc1ccccc1 [Nimesulide] | 22400 ± 1800
O=C1C(O)=C([C@H]2CC[C@H](c3ccc(Cl)cc3)CC2)C(=O)c2ccccc21 [Atovaquone] | 25600 ± 800
O=C(c1ccccc1)c1ccc2n1CCC2C(=O)O (stereo not drawn) [Ketorolac] | 24300 ± 3100
CCCc1nn(C)c2c(=O)[nH]c(-c3cc(S(=O)(=O)N4CCN(C)CC4)ccc3OCC)nc12 [Sildenafil] | 32200 ± 7500
CCCN1C[C@H](C)[C@@H](O)[C@](C)(O)[C@@H](CC)OC(=O)[C@H](C)[C@@H](O[C@H]2C[C@@](C)(OC)[C@@H](O)[C@H](C)O2)[C@H](C)[C@@H](O[C@@H]2O[C@H](C)C[C@H](N(C)C)[C@H]2O)[C@](C)(O)C[C@H]1C [Gamithromycin] | 26200 ± 5000
C[C@@H](CN1CC(=O)NC(=O)C1)N1CC(=O)NC(=O)C1 [Dexrazoxane HCl (ICRF-187, ADR-529)] | 26300 ± 6400
CCCCOc1cc(C(=O)NCCN(CC)CC)c2ccccc2n1 [Dibucaine HCl] | 25800 ± 4200
CC[C@H]1OC(=O)C[C@@H](O)[C@H](C)[C@@H](O[C@@H]2O[C@H](C)[C@@H](O[C@H]3C[C@@](C)(O)[C@@H](O)[C@H](C)O3)[C@H](N(C)C)[C@H]2O)[C@@H](CC=O)C[C@@H](C)C(=O)/C=C/C(C)=C/[C@@H]1CO[C@@H]1O[C@H](C)[C@@H](O)[C@@H](OC)[C@H]1OC [Tylosin] | 29800 ± 1300
CCOC(=O)CCC(=O)O[C@H]1[C@H](O[C@@H]2[C@@H](C)[C@H](O[C@H]3C[C@@](C)(OC)[C@@H](O)[C@H](C)O3)[C@@H](C)C(=O)O[C@H](CC)[C@@](C)(O)[C@H](O)[C@@H](C)C(=O)[C@H](C)C[C@@]2(C)O)O[C@H](C)C[C@@H]1N(C)C [Erythromycin Ethylsuccinate] | 22800 ± 8300
C1N2CN3CN1CN(C2)C3 [Methenamine] | 27200 ± 3800
COC(=O)Nc1nc2cc([S+]([O-])c3ccccc3)ccc2[nH]1 (stereo not drawn) [Oxfendazole] | 20500 ± 6100
CCn1cc(C(=O)O)c(=O)c2cc(F)c(N3CCN(C)CC3)cc21 [Pefloxacin Mesylate Dihydrate] | 19900 ± 7500
COC(=O)C1=C(C#N)NC(C)=C(C(=O)OC(C)C)C1c1cccc([N+](=O)[O-])c1 (stereo not drawn) [Nilvadipine] | 14800 ± 2600
Cc1cc(NS(=O)(=O)c2ccc(N)cc2)nc(C)n1 [sulfaisodimidine] | 27500 ± 6300
CN(Cc1cnc2nc(N)nc(N)c2n1)c1ccc(C(=O)N[C@@H](CCC(=O)O)C(=O)O)cc1 [Methotrexate] | 5000 ± 480
